Data reported in the supplement of paper PMC7024190.
Counter-ions that a name gives are not always drawn. This is one part of the list. Repeats in this data set agree poorly, so a single value says little.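 Human embryonic kidney cells were transiently transfected with a plasmid bearing a Renilla luciferase gene under the HSV-TK promoter. This first-round screen tests roughly ten thousand compounds for ones that increase reporter output.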

system: HEK 293FT; assay: log relative Renilla luciferase luminescence (reporter expression vs reference, reference not stated) (log (base not stated)); higher = higher recombinant reporter expression; conditions: 10 µM; time after transfection 48 h

Row | SMILES | log
1 | O=C(Nc1ccc([N+](=O)[O-])cc1Cl)c1cc(Cl)ccc1O [niclosamide] | -1.8
2 | CCOc1ccc(Cc2nccc3cc(OCC)c(OCC)cc23)cc1OCC [ethaverine hydrochloride] | -0.0597
3 | O=c1cc[nH]c(=O)[nH]1 [uracil] | -0.0249
4 | COc1ccc(-c2cc(=O)c3c(OC)c(OC)c(OC)c(OC)c3o2)cc1OC [nobiletin] | -0.0689
5 | CCCCC(CC)COc1ccc(-c2nc(-c3ccc(OC)cc3)nc(-c3ccc(OCC(CC)CCCC)cc3O)n2)c(O)c1 (stereo unspecified) [bemotrizinol] | -0.0517
6 | CC/C=C\C/C=C\C/C=C\C/C=C\C/C=C\C/C=C\CCC(=O)O [doconexent] | 0.0613
7 | CCC[C@@H]1C[C@@H](C(=O)N[C@@H]([C@H]2O[C@H](SC)[C@H](O)[C@@H](O)[C@H]2O)[C@@H](C)O)N(C)C1 [lincomycin hydrochloride] | 0.111
8 | C=C1C(N)CC2CC1C2(C)C (stereo not drawn) [3-amino-beta-pinene] | 0.108
9 | CN1CCCN=C1/C=C/c1cccs1 [pyrantel pamoate] | 0.106
10 | NNC(=O)c1ccncc1 [isoniazid] | 0.124
11 | CC1(C)O[C@@H]2C[C@H]3[C@@H]4C[C@H](F)C5=CC(=O)CC[C@]5(C)[C@H]4[C@@H](O)C[C@]3(C)[C@]2(C(=O)CO)O1 [flurandrenolide] | -0.0581
12 | CCC(=O)OCC(=O)[C@@]1(OC(=O)CC)[C@@H](C)C[C@H]2[C@@H]3CCC4=CC(=O)C=C[C@]4(C)[C@@]3(F)[C@@H](O)C[C@@]21C [betamethasone 17,21-dipropionate] | -0.195
13 | CC1=CCc2c(cc3oc(C)cc(=O)c3c2O)OC1 [ptaeroxylin] | -0.00406
14 | CC1(C)CC2C1CCC1(C)OC1CCC2(C)O (stereo unspecified) [2-hydroxy-5 (6)epoxy-tetrahydrocaryophyllene] | -0.0586
15 | O=C(O)c1cccnc1 [niacin] | -0.149
16 | CCCCc1oc2ccccc2c1C(=O)c1cc(I)c(OCCN(CC)CC)c(I)c1 [amiodarone hydrochloride] | 0.0126
17 | O=c1[nH]c(=O)n([C@H]2C[C@H](O)[C@@H](CO)O2)cc1I [idoxuridine] | 0.188
18 | O=c1cccc2ccc(O)c(O)c2c1O [pyrogallin] | -0.0491
19 | Cc1cccc(N(C)C(=S)Oc2ccc3ccccc3c2)c1 [tolnaftate] | 0.266
20 | N[C@@H](COP(=O)(O)O)C(=O)O [dexfosfoserine] | 0.0223
21 | CCN1CCCC1CNC(=O)c1cc(S(N)(=O)=O)ccc1OC (stereo unspecified) [sulpiride] | -0.239
22 | COc1ccc(-c2ccc3cc(C(=O)O)ccc3c2)cc1C12CC3CC(CC(C3)C1)C2 [adapalene] | -0.15
23 | COc1ccc(-c2coc3cc(O)ccc3c2=O)c(OC)c1 [2'-methoxyformonetin] | -0.0451

Row | SMILES | log
24 | O=C(O)CCC(=O)c1ccc(-c2ccccc2)cc1 [fenbufen] | 0.0529
25 | C[C@H]1[C@H](C)CC[C@]2(C(=O)O)CC[C@]3(C)C(=CC[C@@H]4[C@@]5(C)C[C@@H](O)[C@H](O)[C@@](C)(CO)[C@@H]5[C@H](O)C[C@]43C)[C@H]12 [madecassic acid] | 0.18
26 | CN1CCN2c3ccccc3Cc3ccccc3C2C1 (stereo unspecified) [mianserin hydrochloride] | 0.0854
27 | N[C@@H](Cc1ccc(O)c(O)c1)C(=O)O [levodopa] | 0.316
28 | CCC(C)C(NC)C(=O)O (stereo unspecified) [n-methylisoleucine] | 0.00912
29 | CN(C)CCc1c[nH]c2ccc(CS(=O)(=O)N3CCCC3)cc12 [almotriptan] | -0.115
30 | COc1cc(O)cc(OC)c1OC [antiarol] | 0.0818
31 | O=C(NC(Cc1cc(=O)[nH]c2ccccc12)C(=O)O)c1ccc(Cl)cc1 (stereo unspecified) [rebamipide] | -0.0631
32 | CC(C)(C)NC[C@H](O)COc1cccc2c1CCCC2=O [levobunolol hydrochloride] | -0.0317
33 | C[N+](C)(C)CCOC(N)=O [carbachol] | -0.0748
34 | COC(=O)C[C@H]1C2(C)CC34OC5(C)O[C@@]6([C@H](OC)C(OC(=O)C(C)C)[C@]7(C)C(/C(=C(/OC)C(C)C)C(=O)O[C@H]7c7ccoc7)[C@@]6(O5)[C@H](OC)[C@@]3(OC)C2OC(C)=O)[C@]14C (stereo partly specified) [chukrasin methyl ether] | -0.104
35 | OC[C@H]1O[C@@H](O[C@H]2[C@H](O)[C@@H](O)C(O)O[C@@H]2CO)[C@H](O)[C@@H](O)[C@H]1O (stereo partly specified) [lactose monohydrate] | -0.158
36 | COC(=O)/C=C/C(=O)OC [dimethyl fumarate] | -0.0971
37 | CCOC(=O)C1=C(C)NC(C)=C(C(=O)OC)C1c1cccc(Cl)c1Cl (stereo unspecified) [felodipine] | -0.131
38 | C[C@H](CCC(=O)O)[C@H]1CC[C@H]2[C@@H]3C(=O)C[C@@H]4CC(=O)CC[C@]4(C)[C@H]3CC(=O)[C@]12C [dehydrocholate sodium] | 0.0878
39 | C[C@H](CCC(=O)O)[C@H]1CC[C@H]2[C@@H]3C(=O)C[C@@H]4CC(=O)CC[C@]4(C)[C@H]3CC(=O)[C@]12C [dehydrocholic acid] | 0.0596
40 | Cc1nc2sccn2c(=O)c1CCN1CCC(=C(c2ccc(F)cc2)c2ccc(F)cc2)CC1 [ritanserin] | 0.0126
41 | CO[C@H]1C[C@H](O[C@@H]2/C(C)=C/C[C@@H]3C[C@@H](C[C@]4(CC[C@H](C)[C@@H](C5CCCCC5)O4)O3)OC(=O)[C@@H]3C=C(C)/C(=N/O)[C@H]4OC/C(=C\C=C\[C@@H]2C)[C@]43O)O[C@@H](C)[C@@H]1O [selamectin] | 0.174
42 | O=C1c2c(O)ccc(O)c2C(=O)c2c(NCCNCCO)ccc(NCCNCCO)c21 [mitoxantrone hydrochloride] | -0.927
43 | CCN(CC)CCNC(=O)c1cc(Br)c(N)cc1OC [bromopride] | 0.104
44 | CCCCC(=O)N(Cc1ccc(-c2ccccc2-c2nnn[nH]2)cc1)[C@H](C(=O)O)C(C)C [valsartan] | 0.0443
45 | C[C@H]1C(=O)CC[C@@H]2[C@]1(C)CC[C@H]1[C@@]2(C)CC[C@@]2(C)[C@@H]3CC(C)(C)CC[C@]3(C)CC[C@]12C [friedelin] | 0.0789
46 | OC(CCN1CCCCC1)(c1ccccc1)c1ccccc1 [pridinol methanesulfonate] | 0.063

Individual results from above:
log with CCCCC(=O)N(Cc1ccc(-c2ccccc2-c2nnn[nH]2)cc1)[C@H](C(=O)O)C(C)C [valsartan] is entered as 0.0443
log with C[C@H]1C(=O)CC[C@@H]2[C@]1(C)CC[C@H]1[C@@]2(C)CC[C@@]2(C)[C@@H]3CC(C)(C)CC[C@]3(C)CC[C@]12C [friedelin] is entered as 0.0789
log with C[N+](C)(C)CCOC(N)=O [carbachol] is entered as -0.0748
